# This is one part of the list.
# B1: Protein L(B1-B4) (Finegoldia magna), Q51912 (protein)
# chain: KEETPETPETDSEEEVTIKANLIFANGSTQTAEFKGTFEKATSEAYAYADTLKKDNGEYTVDVADKGYTLNIKFAGKEKTPEEPKEEVTIKANLIYADGKTQTAEFKGTFEEATAEAYRYADALKKDNGEYTVDVADKGYTLNIKFAGKEKTPEEPKEEVTIKANLIYADGKTQTAEFKGTFEEATAEAYRYADLLAKENGKYTVDVADKGYTLNIKFAGKEKTPEEPKEEVTIKANLIYADGKTQTAEFKGTFAEATAEAYRYADLLAKENGKYTADLEDGGYTINIRFAG
# Assays:
# Test in all cases: glycan array binding signal (z-score within array); higher = stronger binding
# Details in all cases: glycan notation: IUPAC condensed, linker removed
# [1] = molecular target: Neu5Ac(a2-6)Gal(b1-4)GlcNAc(b1-2)Man(a1-3)[Man(a1-6)]Man(b1-4)GlcNAc(b1-4)GlcNAc
# Method in brief: (§1)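 The binding signal is a Z-score computed within each array and averaged over linkers. Arrays of the same protein sequence at different concentrations or buffers were also averaged together. Data originate from 3228 arrays in the Consortium for Functional Glycomics database, kept only where the protein sequence was available.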
# [2] = molecular target: Neu5Ac(a2-6)Gal(b1-4)GlcNAc(b1-2)Man(a1-3)[Neu5Ac(a2-3)Gal(b1-4)GlcNAc(b1-2)Man(a1-6)]Man(b1-4)GlcNAc(b1-4)GlcNAc
# Method in brief: as §1
# [3] = molecular target: Neu5Ac(a2-6)Gal(b1-4)GlcNAc(b1-2)Man(a1-3)[Neu5Ac(a2-6)Gal(b1-4)GlcNAc(b1-2)Man(a1-6)]Man(b1-4)GlcNAc(b1-4)GlcNAc
# Method in brief: as §1
# [4] = molecular target: Neu5Ac(a2-6)Gal(b1-4)GlcNAc(b1-2)Man(a1-3)[Neu5Ac(a2-6)Gal(b1-4)GlcNAc(b1-2)Man(a1-6)]Man(b1-4)GlcNAc(b1-4)[Fuc(a1-6)]GlcNAc
# Method in brief: as §1
# [5] = molecular target: Neu5Ac(a2-6)Gal(b1-4)GlcNAc(b1-2)Man(a1-6)Man(b1-4)GlcNAc(b1-4)GlcNAc
# Method in brief: as §1
# [6] = molecular target: Neu5Ac(a2-6)Gal(b1-4)GlcNAc(b1-2)Man(a1-6)[Gal(b1-4)GlcNAc(b1-2)Man(a1-3)]Man(b1-4)GlcNAc(b1-4)GlcNAc
# Method in brief: as §1
# [7] = molecular target: Neu5Ac(a2-6)Gal(b1-4)GlcNAc(b1-2)Man(a1-6)[GlcNAc(b1-2)Man(a1-3)]Man(b1-4)GlcNAc(b1-4)GlcNAc
# Method in brief: as §1
# [8] = molecular target: Neu5Ac(a2-6)Gal(b1-4)GlcNAc(b1-2)Man(a1-6)[Man(a1-3)]Man(b1-4)GlcNAc(b1-4)GlcNAc
# Method in brief: as §1
# [9] = molecular target: Neu5Ac(a2-6)Gal(b1-4)GlcNAc(b1-2)[Neu5Ac(a2-6)Gal(b1-4)GlcNAc(b1-4)]Man(a1-3)[GlcNAc(b1-4)][Neu5Ac(a2-6)Gal(b1-4)GlcNAc(b1-2)[Neu5Ac(a2-6)Gal(b1-4)GlcNAc(b1-6)]Man(a1-6)]Man(b1-4)GlcNAc(b1-4)GlcNAc
# Method in brief: as §1
# [10] = molecular target: Neu5Ac(a2-6)Gal(b1-4)GlcNAc(b1-2)[Neu5Ac(a2-6)Gal(b1-4)GlcNAc(b1-4)]Man(a1-3)[GlcNAc(b1-4)][Neu5Ac(a2-6)Gal(b1-4)GlcNAc(b1-4)Man(a1-6)]Man(b1-4)GlcNAc(b1-4)GlcNAc
# Method in brief: as §1
# [11] = molecular target: Neu5Ac(a2-6)Gal(b1-4)GlcNAc(b1-2)[Neu5Ac(a2-6)Gal(b1-4)GlcNAc(b1-6)]Man(a1-6)[Neu5Ac(a2-6)Gal(b1-4)GlcNAc(b1-2)Man(a1-3)][GlcNAc(b1-4)]Man(b1-4)GlcNAc(b1-4)GlcNAc
# Method in brief: as §1
# [12] = molecular target: Neu5Ac(a2-6)Gal(b1-4)GlcNAc(b1-3)Gal(b1-3)GlcNAc
# Method in brief: as §1
# [13] = molecular target: Neu5Ac(a2-6)Gal(b1-4)GlcNAc(b1-3)Gal(b1-4)GlcNAc
# Method in brief: as §1
# [14] = molecular target: Neu5Ac(a2-6)Gal(b1-4)GlcNAc(b1-3)Gal(b1-4)GlcNAc(b1-2)Man(a1-3)[Neu5Ac(a2-6)Gal(b1-4)GlcNAc(b1-3)Gal(b1-4)GlcNAc(b1-2)Man(a1-6)]GalNAc
# Method in brief: as §1
# [15] = molecular target: Neu5Ac(a2-6)Gal(b1-4)GlcNAc(b1-3)Gal(b1-4)GlcNAc(b1-3)Gal(b1-4)GlcNAc
# Method in brief: as §1
# [16] = molecular target: Neu5Ac(a2-6)Gal(b1-4)GlcNAc(b1-3)Gal(b1-4)GlcNAc(b1-3)Gal(b1-4)GlcNAc(b1-2)Man(a1-3)[Neu5Ac(a2-6)Gal(b1-4)GlcNAc(b1-3)Gal(b1-4)GlcNAc(b1-3)Gal(b1-4)GlcNAc(b1-2)Man(a1-6)]GalNAc
# Method in brief: as §1
# [17] = molecular target: Neu5Ac(a2-6)Gal(b1-4)GlcNAc(b1-3)Gal(b1-4)GlcNAc(b1-3)GalNAc
# Method in brief: as §1
# [18] = molecular target: Neu5Ac(a2-6)Gal(b1-4)GlcNAc(b1-3)Gal(b1-4)GlcNAc(b1-3)[Neu5Ac(a2-6)Gal(b1-4)GlcNAc(b1-3)Gal(b1-4)GlcNAc(b1-6)]GalNAc
# Method in brief: as §1
# [19] = molecular target: Neu5Ac(a2-6)Gal(b1-4)GlcNAc(b1-3)Gal(b1-4)GlcNAc(b1-6)[Gal(b1-3)]GalNAc
# Method in brief: as §1
# [20] = molecular target: Neu5Ac(a2-6)Gal(b1-4)GlcNAc(b1-3)Gal(b1-4)[Fuc(a1-3)]GlcNAc(b1-3)Gal(b1-4)[Fuc(a1-3)]GlcNAc
# Method in brief: as §1
# [21] = molecular target: Neu5Ac(a2-6)Gal(b1-4)GlcNAc(b1-3)GalNAc
# Method in brief: as §1
# [22] = molecular target: Neu5Ac(a2-6)Gal(b1-4)GlcNAc(b1-3)[Neu5Ac(a2-6)Gal(b1-4)GlcNAc(b1-6)]GalNAc
# Method in brief: as §1
# [23] = molecular target: Neu5Ac(a2-6)Gal(b1-4)GlcNAc(b1-6)GalNAc
# Method in brief: as §1
# [24] = molecular target: Neu5Ac(a2-6)Gal(b1-4)GlcNAc(b1-6)[Gal(b1-3)GlcNAc(b1-3)]Gal(b1-4)Glc
# Method in brief: as §1
# [25] = molecular target: Neu5Ac(a2-6)Gal(b1-4)GlcNAc(b1-6)[Gal(b1-3)]GalNAc
# Method in brief: as §1
# [26] = molecular target: Neu5Ac(a2-6)Gal(b1-4)GlcNAc6S
# Method in brief: as §1
# Neu5Ac(a2-6)GalNAc = molecular target: Neu5Ac(a2-6)GalNAc
# Method in brief: as §1
# [27] = molecular target: Neu5Ac(a2-6)GalNAc(b1-4)GlcNAc
# Method in brief: as §1
# [28] = molecular target: Neu5Ac(a2-6)GalNAc(b1-4)GlcNAc6S
# Method in brief: as §1
# [29] = molecular target: Neu5Ac(a2-6)GlcNAc(b1-4)GlcNAc
# Method in brief: as §1
binder,measurement,setting,value
B1,glycan array binding signal (z-score),[1],-0.601
same,glycan array binding signal (z-score),[2],-0.866
same,glycan array binding signal (z-score),[3],-0.562
same,glycan array binding signal (z-score),[4],2.28
same,glycan array binding signal (z-score),[5],-0.493
same,glycan array binding signal (z-score),[6],-0.889
same,glycan array binding signal (z-score),[7],-0.623
same,glycan array binding signal (z-score),[8],-0.244
same,glycan array binding signal (z-score),[9],0.21
same,glycan array binding signal (z-score),[10],-0.109
same,glycan array binding signal (z-score),[11],-0.486
same,glycan array binding signal (z-score),[12],-0.883
same,glycan array binding signal (z-score),[13],-0.506
same,glycan array binding signal (z-score),[14],-0.472
same,glycan array binding signal (z-score),[15],-0.265
same,glycan array binding signal (z-score),[16],3.91
same,glycan array binding signal (z-score),[17],-0.256
same,glycan array binding signal (z-score),[18],2.86
same,glycan array binding signal (z-score),[19],0.095
same,glycan array binding signal (z-score),[20],1.49
same,glycan array binding signal (z-score),[21],0.664
same,glycan array binding signal (z-score),[22],0.586
same,glycan array binding signal (z-score),[23],3.08
same,glycan array binding signal (z-score),[24],-0.606
same,glycan array binding signal (z-score),[25],0.784
same,glycan array binding signal (z-score),[26],-1.16
same,glycan array binding signal (z-score),Neu5Ac(a2-6)GalNAc,-0.807
same,glycan array binding signal (z-score),[27],-0.471
same,glycan array binding signal (z-score),[28],-0.425
same,glycan array binding signal (z-score),[29],-0.932

# Laid out differently: entries from further up.
binder	measurement	setting	value
B1	glycan array binding signal (z-score)	[6]	-0.889
same	glycan array binding signal (z-score)	[16]	3.91
same	glycan array binding signal (z-score)	[19]	0.095
same	glycan array binding signal (z-score)	[24]	-0.606
same	glycan array binding signal (z-score)	[26]	-1.16
same	glycan array binding signal (z-score)	[29]	-0.932
